Record: PubChem BioAssay AID1159578 (Peter MacCallum Cancer Centre, 2015)

- Assay: 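Knock-downs that alter how fast lymphatic endothelial cells migrate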 (primary screen)
- System: human lymphatic endothelial cells
- Reagent: siRNA pool against human genes, 40 nM
- Time to read-out: 48 h after transfection
- Read-out: 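High-content imaging of dye-stained cells in a scratch assay measures filled wound area and nuclei per well; duplicate means given as ratio to mock and robust z-score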
- Direction: migration robust z-score: higher = faster migration into the scratch; migration relative to mock: higher = more scratch area covered than mock; nuclei per well: higher = more cells in the well
- Hit rule: 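Migration changed when robust z exceeds 2 or falls below -2 and mean nuclei number is at least 3300; otherwise not called changed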
- Calls: active = migration changed; inactive = no migration change, or too few cells
The whole screen tested about 18,000 reagents; shown is a part drawn at random. About 1,030 of all reagents (5.7%) were called active. 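Inactive calls also include pools with fewer than 3300 nuclei, whose migration was not assessed.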 Raw values vary from plate to plate and are shown uncorrected. Entries without a mark were called inactive.

| target gene | PubChem SID | migration robust z-score | migration class with cell-count check | migration relative to mock | nuclei per well, duplicate mean |
| --- | --- | --- | --- | --- | --- |
| DARS2 (GeneID 55157) | SID255358456 | -0.44 | migration z between -2 and 2; enough cells | 0.77 | 5396 |
| XKR3 (GeneID 150165) | SID255363441 | -0.94 | migration z between -2 and 2; enough cells | 0.64 | 7034 |
| NPHP3 (GeneID 27031) | SID255356883 | -0.54 | migration z between -2 and 2; enough cells | 0.74 | 5112 |
| FAU (GeneID 2197) | SID255349634 | -1.48 | migration z between -2 and 2; enough cells | 0.5 | 5575 |
| FAM120AOS (GeneID 158293) | SID255363656 | 0.2 | migration z between -2 and 2; enough cells | 0.94 | 5038 |
| TMEM207 (GeneID 131920) | SID255362909 | -1.94 | migration z between -2 and 2; enough cells | 0.38 | 3834 |
| ATPAF2 (GeneID 91647) | SID255361936 | 0.29 | migration z between -2 and 2; enough cells | 0.96 | 6234 |
| PAGE3 (GeneID 139793) | SID255363087 | 0.77 | migration z between -2 and 2; enough cells | 1.08 | 4853 |
| ARF1 (GeneID 375) | SID255348377 | -1.48 | migration z between -2 and 2; enough cells | 0.52 | 4995 |
| CYCS (GeneID 54205) | SID255357981 | -0.6 | migration z between -2 and 2; enough cells | 0.69 | 4846 |
| UCHL5 (GeneID 51377) | SID255357687 | 0.26 | migration z between -2 and 2; enough cells | 0.86 | 5901 |
| ST6GALNAC3 (GeneID 256435) | SID255364528 | 1.29 | migration z between -2 and 2; enough cells | 1.05 | 4589 |
| SLF1 (GeneID 84250) | SID255361268 | 1.34 | migration z between -2 and 2; enough cells | 1.23 | 5688 |
| BMP4 (GeneID 652) | SID255348556 | 0.08 | migration z between -2 and 2; enough cells | 0.82 | 5224 |
| MTREX (GeneID 23517) | SID255356293 | -0.41 | migration z between -2 and 2; enough cells | 0.78 | 5746 |
| SP7 (GeneID 121340) | SID255362521 | -0.16 | migration z between -2 and 2; enough cells | 0.77 | 3608 |
| MAGI2 (GeneID 9863) | SID255354619 | 0.65 | migration z between -2 and 2; enough cells | 0.93 | 5403 |
| NFYB (GeneID 4801) | SID255351235 | 1.09 | migration z between -2 and 2; enough cells | 1.02 | 5530 |
| CDH10 (GeneID 1008) | SID255348829 | -1.49 | migration z between -2 and 2; enough cells | 0.5 | 6378 |
| CCDC6 (GeneID 8030) | SID255353370 | -0.71 | migration z between -2 and 2; enough cells | 0.7 | 4195 |
| RBM48 (GeneID 84060) | SID255361168 | 1.04 | migration z between -2 and 2; enough cells | 1.16 | 5890 |
| KIF19 (GeneID 124602) | SID255362624 | -0.62 | migration z between -2 and 2; enough cells | 0.73 | 5566 |
| ARHGAP44 (GeneID 9912) | SID255354659 | 0.88 | migration z between -2 and 2; enough cells | 1.12 | 4414 |
| PLOD2 (GeneID 5352) | SID255351637 | 1.66 | migration z between -2 and 2; enough cells | 1.12 | 4913 |
| CCL7 (GeneID 6354) | SID255352324 | -1.22 | migration z between -2 and 2; enough cells | 0.57 | 4913 |
| GRHL1 (GeneID 29841) | SID255357182 | 2.89 (active) | migration z above 2; enough cells | 1.64 | 5730 |
| FASLG (GeneID 356) | SID255348361 | -0.6 | migration z between -2 and 2; enough cells | 0.74 | 4753 |
| TMEM154 (GeneID 201799) | SID255364092 | -0.19 | migration z between -2 and 2; enough cells | 0.84 | 5558 |
| OR5I1 (GeneID 10798) | SID255355359 | -0.34 | migration z between -2 and 2; enough cells | 0.8 | 5772 |
| ACSF3 (GeneID 197322) | SID255363990 | -0.13 | migration z between -2 and 2; enough cells | 0.85 | 5556 |
| KDM5A (GeneID 5927) | SID255352059 | 0.18 | migration z between -2 and 2; enough cells | 0.84 | 6947 |
| VSIR (GeneID 64115) | SID255359839 | 1.16 | migration z between -2 and 2; enough cells | 1.18 | 4939 |
| SPICE1 (GeneID 152185) | SID255363528 | -2.87 (active) | migration z below -2; enough cells | 0.14 | 5005 |
| TEDC1 (GeneID 283643) | SID255364696 | 0.86 | migration z between -2 and 2; enough cells | 1.1 | 5564 |
| TNFSF18 (GeneID 8995) | SID255353958 | 0.48 | migration z between -2 and 2; enough cells | 1.01 | 7746 |
| TENT2 (GeneID 167153) | SID255363853 | 1.94 | migration z between -2 and 2; enough cells | 1.39 | 6323 |
| SH2B1 (GeneID 25970) | SID255356584 | 1.06 | migration z between -2 and 2; enough cells | 1.16 | 5592 |
| GALNT6 (GeneID 11226) | SID255355692 | 0.7 | migration z between -2 and 2; enough cells | 0.94 | 5054 |
| CCDC59 (GeneID 29080) | SID255357122 | -1.51 | migration z between -2 and 2; enough cells | 0.5 | 4755 |
| IFNL1 (GeneID 282618) | SID255364620 | -0.18 | migration z between -2 and 2; enough cells | 0.84 | 5496 |
| KPNA4 (GeneID 3840) | SID255350671 | 0.83 | migration z between -2 and 2; enough cells | 0.96 | 6246 |
| NECAB2 (GeneID 54550) | SID255358081 | 0.14 | migration z between -2 and 2; enough cells | 0.92 | 5738 |
| ZBTB2 (GeneID 57621) | SID255359512 | 1.31 | migration z between -2 and 2; enough cells | 1.23 | 5920 |
| CADM1 (GeneID 23705) | SID255356408 | -2.55 (active) | migration z below -2; enough cells | 0.22 | 5603 |
| RGS6 (GeneID 9628) | SID255354423 | 0.42 | migration z between -2 and 2; enough cells | 0.88 | 6273 |
| PIGK (GeneID 10026) | SID255354754 | -0.62 | migration z between -2 and 2; enough cells | 0.68 | 4860 |
| EEF1B2 (GeneID 1933) | SID255349436 | -0.64 | migration z between -2 and 2; enough cells | 0.68 | 5556 |
| ADAMTS15 (GeneID 170689) | SID255363914 | -1.35 | migration z between -2 and 2; enough cells | 0.54 | 5400 |
| UBQLN4 (GeneID 56893) | SID255359142 | -0.27 | migration z between -2 and 2; enough cells | 0.81 | 4169 |
| CHMP6 (GeneID 79643) | SID255360353 | 0.66 | migration z between -2 and 2; enough cells | 1.06 | 6114 |
| STYX (GeneID 6815) | SID255352691 | 0.78 | migration z between -2 and 2; enough cells | 0.96 | 5272 |
| MAP3K21 (GeneID 84451) | SID255361372 | 1.4 | migration z between -2 and 2; enough cells | 1.07 | 5757 |
| IGFBP6 (GeneID 3489) | SID255350432 | 0.45 | migration z between -2 and 2; enough cells | 1 | 4807 |
| HCN3 (GeneID 57657) | SID255359532 | -0.08 | migration z between -2 and 2; enough cells | 0.79 | 6266 |
| RPE (GeneID 6120) | SID255352159 | -0.86 | migration z between -2 and 2; enough cells | 0.64 | 4646 |
| LRR1 (GeneID 122769) | SID255362560 | 1.86 | migration z between -2 and 2; enough cells | 1.17 | 5748 |
| TNS1 (GeneID 7145) | SID255352928 | -0.26 | migration z between -2 and 2; enough cells | 0.82 | 7204 |
